Results deposited as PubChem BioAssay AID602196 (INSERM, 2012)

Screen: 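Modifiers of cisplatin sensitivity in A549 cells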
System: human A549 lung cancer cells
Reagent: siRNA pair against human genes
Duration: 48 h transfection before cisplatin; time from cisplatin to read-out not stated
Challenge: cisplatin at a dose killing half of control-siRNA cells; exact dose and duration not given
Read-out: 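Shift in cisplatin death relative to control siRNA, from -50 (all cells die) to +50 (no cells die); siRNAs harmful on their own scored 0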
Reading the numbers: two-siRNA summed score (-2 to +2): higher = both siRNAs protect from cisplatin killing; -2 means both sensitise; mean protection from cisplatin (shift in death) and protection from cisplatin (shift in death), siRNA C and protection from cisplatin (shift in death), siRNA D: higher = protection from cisplatin killing
Rule for the call: 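siRNAs harmful alone (LDH or WST-1) get 0; others get +1 for less and -1 for more cisplatin killing; genes are active when the two siRNAs give the same sign, summing to ±2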
Meaning of the calls: active = both siRNAs shift cisplatin killing the same way; inactive = no consistent shift, or siRNA harmful alone
Here is a random part of about 23,000 reagents. 455 of them (2%) were called active. 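Active includes both protection and sensitisation; some change values fall well beyond the stated -50 to +50 range.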 Entries without a mark were called inactive. The record does not give: the amount of reagent.

| target | two-siRNA summed score (-2 to +2) | mean protection from cisplatin (shift in death) (%) | protection from cisplatin (shift in death), siRNA C (%) | protection from cisplatin (shift in death), siRNA D (%) |
| --- | --- | --- | --- | --- |
| LOC441353 | 0 | -0.2 | 8.4 | -8.7 |
| UBR1 | -1 | 1.9 | 35.7 | -31.8 |
| CATSPERG | 0 | -1.7 | 7.1 | -10.6 |
| DACH1 | 1 | 15.2 | 16.4 | 14 |
| WWOX | 0 | -9.4 | -10.3 | -8.4 |
| SNAP47 | 0 | -4.9 | -2.2 | -7.6 |
| LOC388388 | 0 | 5.9 | 14.6 | -2.8 |
| ARFIP1 | 0 | 9.4 | 8 | 10.9 |
| ZNF585A | 0 | 11 | 14.2 | 7.8 |
| VAT1 | -1 | -3.6 | -13.6 | 6.4 |
| MED23 | -1 | -12.1 | -22.4 | -1.8 |
| TMEM270 | 0 | -0.3 | -0.6 | 0 |
| NME7 | 0 | 7.5 | 1.2 | 13.8 |
| AGO2 | 0 | 7.6 | 14.3 | 0.9 |
| VEGFC | 0 | 2.5 | -3.2 | 8.2 |
| LOC342892 | 0 | 7.5 | 15.7 | -0.8 |
| LOC341371 | 1 | 16 | 19.8 | 12.2 |
| LINC01116 | 1 | 17.6 | 19.9 | 15.4 |
| BUB1B | 0 | -14.1 | -22.9 | -5.2 |
| MCUR1 | 0 | 7.2 | 14 | 0.4 |
| AMTN | 0 | 7.9 | 8.4 | 7.4 |
| MTRF1 | 0 | 3.5 | -2.4 | 9.3 |
| CNIH1 | 0 | 10 | 17.1 | 2.9 |
| ABCA7 | -1 | 1.9 | 30.3 | -26.6 |
| TBL1X | 0 | -4.9 | -6.8 | -3 |
| TMEM52B | 0 | 8.7 | 5.3 | 12.2 |
| SHANK1 | 0 | 5.8 | 1.8 | 9.7 |
| LOC391295 | 0 | 3.4 | 4.5 | 2.3 |
| SESN1 | 0 | 12 | 13.8 | 10.1 |
| KLHL2 | 1 | 10.2 | 19.6 | 0.8 |
| OR4F6 | 0 | 16.5 | 23.9 | 9 |
| DDI1 | 1 | 10.6 | -10.7 | 31.8 |
| UBL3 | 0 | -3.6 | -0.5 | -6.7 |
| TMPRSS11E | 0 | 12.5 | 16.7 | 8.3 |
| LOC391025 | 0 | -1.9 | 6 | -9.9 |
| LOC440396 | 0 | 4.8 | -0.9 | 10.5 |
| YBEY | 0 | 3 | -1 | 7 |
| YWHAH | 1 | -0.3 | -21.7 | 21.2 |
| S100A16 | 0 | 1.8 | -9.2 | 12.8 |
| LOC389438 | 0 | 6.7 | 3 | 10.3 |
| L1CAM | -1 | -19.5 | -18.5 | -20.5 |
| CDV3 | 0 | -3.4 | 3 | -9.7 |
| THEMIS2 | 0 | 4.7 | 6.2 | 3.2 |
| CCNB1 | 0 | 1.3 | -2.6 | 5.3 |
| SASS6 | 1 | 19.2 | 20.9 | 17.5 |
| ROMO1 | 0 | -5.1 | -6.6 | -3.7 |
| NKAPL | 0 | -1.7 | -5.2 | 1.8 |
| SLC37A3 | 0 | 0.3 | -5.4 | 5.9 |
| BCL6B | 1 | 9.3 | -5.5 | 24 |
| QARS1 | 0 | 6.1 | 8.3 | 3.9 |
| UBASH3B | 0 | 10.7 | 14.6 | 6.9 |
| ANO7 | 1 | 8.8 | 23.7 | -6.2 |
| PIEZO1 | 0 | 6.4 | 8.1 | 4.8 |
| IL13RA1 | 0 | -15 | -17.9 | -12.2 |
| ELMO3 | 0 | -6.7 | 1.5 | -14.9 |
| LOC402100 | 1 | 13.3 | 14.3 | 12.3 |
| DLL3 | -1 | -18.1 | -22.2 | -14 |

Entries above whose gene name starts with V or v:
| target | two-siRNA summed score (-2 to +2) | mean protection from cisplatin (shift in death) (%) | protection from cisplatin (shift in death), siRNA C (%) | protection from cisplatin (shift in death), siRNA D (%) |
| --- | --- | --- | --- | --- |
| VAT1 | -1 | -3.6 | -13.6 | 6.4 |
| VEGFC | 0 | 2.5 | -3.2 | 8.2 |
